# The supplement of paper PMC12819154, “High-throughput peptide-centric local stability assay extends protein–ligand identification to membrane proteins, tissues and bacteria” (Nature Structural & Molecular Biology, 2025)
# By UniProt entry, the sequences of proteins in these tests, tags left out. Where a name states a change or a piece, a line headed by the entry shows the natural chain unless it says otherwise.
# UniProt Q6P1N0: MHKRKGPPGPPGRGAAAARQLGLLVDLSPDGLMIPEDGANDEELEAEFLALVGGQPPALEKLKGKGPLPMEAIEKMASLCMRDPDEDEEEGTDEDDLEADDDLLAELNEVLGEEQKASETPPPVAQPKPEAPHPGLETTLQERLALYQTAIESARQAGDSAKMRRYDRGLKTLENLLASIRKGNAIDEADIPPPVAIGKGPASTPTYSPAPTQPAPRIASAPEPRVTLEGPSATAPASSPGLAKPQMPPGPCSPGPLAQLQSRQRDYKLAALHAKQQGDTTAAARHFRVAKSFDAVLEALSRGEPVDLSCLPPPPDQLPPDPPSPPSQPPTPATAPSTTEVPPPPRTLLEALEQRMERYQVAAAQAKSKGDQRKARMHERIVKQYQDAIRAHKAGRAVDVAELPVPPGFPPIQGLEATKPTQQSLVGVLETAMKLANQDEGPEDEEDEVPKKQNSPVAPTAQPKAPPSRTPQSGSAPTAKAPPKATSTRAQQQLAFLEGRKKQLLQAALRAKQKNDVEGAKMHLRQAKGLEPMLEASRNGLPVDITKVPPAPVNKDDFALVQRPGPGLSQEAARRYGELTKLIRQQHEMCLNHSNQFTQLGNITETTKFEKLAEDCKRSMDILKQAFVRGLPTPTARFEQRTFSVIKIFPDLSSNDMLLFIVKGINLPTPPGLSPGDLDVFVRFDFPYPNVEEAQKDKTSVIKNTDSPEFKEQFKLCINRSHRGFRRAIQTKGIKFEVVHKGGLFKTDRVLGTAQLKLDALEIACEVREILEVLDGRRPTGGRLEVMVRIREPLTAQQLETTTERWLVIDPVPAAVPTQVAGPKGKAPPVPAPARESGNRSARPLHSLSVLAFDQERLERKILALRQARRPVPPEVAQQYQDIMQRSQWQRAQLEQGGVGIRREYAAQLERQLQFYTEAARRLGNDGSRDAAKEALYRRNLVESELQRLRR
# UniProt Q6VY07, whole entry, looked up: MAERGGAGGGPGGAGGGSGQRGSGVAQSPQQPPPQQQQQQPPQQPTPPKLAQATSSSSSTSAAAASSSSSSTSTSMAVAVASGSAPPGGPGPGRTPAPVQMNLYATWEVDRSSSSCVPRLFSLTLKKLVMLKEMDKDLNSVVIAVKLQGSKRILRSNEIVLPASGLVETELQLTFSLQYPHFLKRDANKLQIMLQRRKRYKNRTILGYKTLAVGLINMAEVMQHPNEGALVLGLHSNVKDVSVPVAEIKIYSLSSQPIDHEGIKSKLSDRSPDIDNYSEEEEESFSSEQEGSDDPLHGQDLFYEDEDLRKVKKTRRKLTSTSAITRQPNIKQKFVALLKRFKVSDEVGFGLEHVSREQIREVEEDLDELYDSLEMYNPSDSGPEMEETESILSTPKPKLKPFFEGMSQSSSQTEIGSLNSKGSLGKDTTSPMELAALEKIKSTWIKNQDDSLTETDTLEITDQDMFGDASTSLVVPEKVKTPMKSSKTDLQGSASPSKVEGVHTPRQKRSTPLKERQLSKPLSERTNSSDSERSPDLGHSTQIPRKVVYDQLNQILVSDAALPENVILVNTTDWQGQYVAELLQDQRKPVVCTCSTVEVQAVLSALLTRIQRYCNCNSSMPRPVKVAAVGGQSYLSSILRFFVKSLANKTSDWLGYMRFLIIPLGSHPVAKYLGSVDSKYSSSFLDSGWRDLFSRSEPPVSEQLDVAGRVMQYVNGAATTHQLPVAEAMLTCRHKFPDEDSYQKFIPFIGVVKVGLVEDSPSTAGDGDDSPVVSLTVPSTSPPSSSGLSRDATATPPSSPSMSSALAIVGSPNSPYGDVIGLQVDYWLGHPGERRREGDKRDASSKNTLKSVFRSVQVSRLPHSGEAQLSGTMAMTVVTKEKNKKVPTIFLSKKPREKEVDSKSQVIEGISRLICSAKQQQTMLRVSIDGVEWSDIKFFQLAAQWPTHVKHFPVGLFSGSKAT
# UniProt Q6NXT4: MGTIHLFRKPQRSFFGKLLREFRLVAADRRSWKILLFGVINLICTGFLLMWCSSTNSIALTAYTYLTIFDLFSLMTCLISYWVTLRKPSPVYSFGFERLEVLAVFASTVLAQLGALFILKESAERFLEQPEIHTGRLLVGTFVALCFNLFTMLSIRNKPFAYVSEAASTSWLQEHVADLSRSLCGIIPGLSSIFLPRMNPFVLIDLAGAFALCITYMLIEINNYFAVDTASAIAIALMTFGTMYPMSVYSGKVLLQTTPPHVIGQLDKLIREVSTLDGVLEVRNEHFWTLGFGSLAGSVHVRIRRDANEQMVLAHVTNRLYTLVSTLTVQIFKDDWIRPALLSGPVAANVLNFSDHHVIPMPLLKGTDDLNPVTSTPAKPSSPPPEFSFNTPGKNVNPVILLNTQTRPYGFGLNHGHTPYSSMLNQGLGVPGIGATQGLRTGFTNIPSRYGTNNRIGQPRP
# UniProt Q6PKH6: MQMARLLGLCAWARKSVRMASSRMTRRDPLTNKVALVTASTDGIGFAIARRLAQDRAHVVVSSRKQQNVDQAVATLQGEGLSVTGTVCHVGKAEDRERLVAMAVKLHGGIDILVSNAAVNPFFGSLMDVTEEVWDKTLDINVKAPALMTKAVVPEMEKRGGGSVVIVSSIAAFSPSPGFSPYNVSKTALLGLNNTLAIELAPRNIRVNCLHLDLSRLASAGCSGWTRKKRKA
# UniProt Q6PL24: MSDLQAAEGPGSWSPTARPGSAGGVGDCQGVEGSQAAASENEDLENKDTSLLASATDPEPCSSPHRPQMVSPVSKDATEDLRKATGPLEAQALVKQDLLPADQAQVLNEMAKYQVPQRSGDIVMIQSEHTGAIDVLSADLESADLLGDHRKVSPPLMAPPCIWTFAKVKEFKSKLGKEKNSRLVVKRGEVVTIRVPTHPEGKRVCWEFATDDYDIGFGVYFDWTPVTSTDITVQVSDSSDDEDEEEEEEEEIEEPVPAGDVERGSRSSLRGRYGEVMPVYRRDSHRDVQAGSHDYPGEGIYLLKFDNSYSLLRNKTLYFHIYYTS
# UniProt Q6AW86: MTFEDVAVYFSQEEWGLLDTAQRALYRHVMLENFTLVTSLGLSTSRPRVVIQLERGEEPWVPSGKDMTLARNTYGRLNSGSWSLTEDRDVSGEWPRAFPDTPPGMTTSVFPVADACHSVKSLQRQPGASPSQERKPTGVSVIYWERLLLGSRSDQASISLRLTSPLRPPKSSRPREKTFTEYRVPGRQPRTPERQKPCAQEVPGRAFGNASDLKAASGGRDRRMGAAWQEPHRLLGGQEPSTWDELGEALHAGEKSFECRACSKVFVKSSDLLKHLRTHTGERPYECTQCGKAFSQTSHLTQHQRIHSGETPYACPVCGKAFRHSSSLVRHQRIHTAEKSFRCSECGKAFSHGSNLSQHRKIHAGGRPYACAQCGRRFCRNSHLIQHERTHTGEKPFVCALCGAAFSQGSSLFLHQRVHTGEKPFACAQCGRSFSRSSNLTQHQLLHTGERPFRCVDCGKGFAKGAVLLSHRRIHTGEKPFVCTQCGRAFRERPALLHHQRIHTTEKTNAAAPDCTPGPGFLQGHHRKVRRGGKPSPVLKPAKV
# UniProt Q6PI98, whole entry: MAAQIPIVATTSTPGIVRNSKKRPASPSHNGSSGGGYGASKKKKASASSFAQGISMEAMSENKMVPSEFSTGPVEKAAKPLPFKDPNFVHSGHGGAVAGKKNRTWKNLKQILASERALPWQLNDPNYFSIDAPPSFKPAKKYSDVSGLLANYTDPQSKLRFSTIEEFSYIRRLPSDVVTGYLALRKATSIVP
# UniProt Q6VEQ5: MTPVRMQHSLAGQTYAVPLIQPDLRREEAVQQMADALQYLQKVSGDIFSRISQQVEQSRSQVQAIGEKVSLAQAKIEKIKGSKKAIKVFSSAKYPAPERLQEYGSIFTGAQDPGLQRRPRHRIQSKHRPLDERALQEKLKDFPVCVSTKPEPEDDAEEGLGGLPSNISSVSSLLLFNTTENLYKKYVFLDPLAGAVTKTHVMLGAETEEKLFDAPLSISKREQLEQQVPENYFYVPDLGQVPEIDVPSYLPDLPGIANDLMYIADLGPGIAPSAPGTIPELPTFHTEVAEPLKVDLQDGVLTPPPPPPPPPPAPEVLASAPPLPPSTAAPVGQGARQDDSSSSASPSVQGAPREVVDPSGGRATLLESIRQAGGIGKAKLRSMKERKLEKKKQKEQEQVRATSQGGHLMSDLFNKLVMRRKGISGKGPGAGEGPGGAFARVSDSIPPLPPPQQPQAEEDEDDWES
# Some of the results follow. Most entries show no effect beyond the scatter of the controls.
# Compound: CN[C@@H]1C[C@H]2O[C@@](C)([C@@H]1OC)n1c3ccccc3c3c4c(c5c6ccccc6n2c5c31)C(=O)NC4 [staurosporine]
# Experiment: log2 fold change of tryptic peptide abundance, ligand vs vehicle (limited proteolysis) (log2 ratio); higher = more trypsin-susceptible (destabilized)
# Conditions: ligand concentration: 20 uM; sample: K562 cleared lysate; digestion: 4 min, 22 C (HT-PELSA RT4min, Orbitrap Astral)
row,Target,log2 fold change
1,"CC2D1A (peptide sequence: LAEDCKR, peptide start residue: 612) (UniProt Q6P1N0)",0.678
2,"PACS1 (peptide sequence: TNSSDSERSPDLGHSTQIPR, peptide start residue: 526) (UniProt Q6VY07)",1.01
3,"SLC30A6 (peptide sequence: TGFTNIPSR, peptide start residue: 441) (UniProt Q6NXT4)",-0.259
4,"UniProt Q6PKH6 (peptide sequence: VALVTASTDGIGFAIAR, peptide start residue: 34)",0.339
5,"TMED8 (peptide sequence: ATGPLEAQALVK, peptide start residue: 84) (UniProt Q6PL24)",-0.114
6,"UniProt Q6AW86 (peptide sequence: GEEPWVPSGK, peptide start residue: 56)",0.455
7,"MRPL14 (peptide sequence: ALIVGHCMPGPR, peptide start residue: 84) (UniProt Q6P1L8)",0.132
8,"INO80C (peptide sequence: RLPSDVVTGYLALR, peptide start residue: 172) (UniProt Q6PI98)",-0.154
9,"WASH2P (peptide sequence: QKEQEQVR, peptide start residue: 375) (UniProt Q6VEQ5)",0.125
